Laboratory results taken from article PMC12029333.
Results are given in words; binding and its absence hold for the method and conditions named. Binding seen in cells or lysates may run through a third protein. These calls come from enrichment with a bait or labelling near it, and not all partners need be listed. Tags and fused reporters may be left off the sequences shown. Blank lines part the entries; values can stand above or below the binder they belong to.

Molecular target: T1, GST-PrkC (Serine/threonine-protein kinase PrkC) (Bacillus subtilis str. 168) (UniProt O34507)
T1 sequence: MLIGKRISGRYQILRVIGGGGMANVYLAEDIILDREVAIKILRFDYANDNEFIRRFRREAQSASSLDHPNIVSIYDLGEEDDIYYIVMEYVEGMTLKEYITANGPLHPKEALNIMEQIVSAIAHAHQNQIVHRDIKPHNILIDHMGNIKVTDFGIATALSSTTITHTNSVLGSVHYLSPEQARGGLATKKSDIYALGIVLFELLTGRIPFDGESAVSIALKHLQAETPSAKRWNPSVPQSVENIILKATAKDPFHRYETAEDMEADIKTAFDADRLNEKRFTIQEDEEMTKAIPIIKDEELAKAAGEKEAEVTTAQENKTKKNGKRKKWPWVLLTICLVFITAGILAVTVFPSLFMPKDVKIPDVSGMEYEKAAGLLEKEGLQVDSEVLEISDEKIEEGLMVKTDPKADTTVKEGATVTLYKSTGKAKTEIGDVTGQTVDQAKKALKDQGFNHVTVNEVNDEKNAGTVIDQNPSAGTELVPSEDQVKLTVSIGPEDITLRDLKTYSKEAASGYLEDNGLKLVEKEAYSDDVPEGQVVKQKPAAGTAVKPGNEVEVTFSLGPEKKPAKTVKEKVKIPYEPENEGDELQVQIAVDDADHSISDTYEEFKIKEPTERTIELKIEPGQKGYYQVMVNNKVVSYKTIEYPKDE
Assay: affinity purification with mass spectrometry; GST-PrkC on glutathione resin incubated with B. subtilis spore lysate at 4 °C; resin washed; bound proteins eluted with 20 mM reduced glutathione; eluate digested with trypsin and analysed by LC-MS/MS; hits filtered at 1% FDR, >=2 unique peptides; only the target purified

B1: Penicillin-binding protein 1F (protein, UniProt P38050 1-714)
chain: MFKIKKKKLFIPIIILVLTAFLALIGYISIIFLGHYVIDEKKLILHASSKIVDQNGDEVASLYTENREPVSINEIPKQVREAFIAVEDKRFYEHHGIDAKSVGRAVYRDILAGGKVEGGSTITQQLAKNIFLTHDKTFLRKTKEVIIAINLERDYSKDKLLEMYLNQLYFGHGVYGIQAASHYYFNKEVKDLTVSEGAVLAAIPKAPSTYSPILHPDKNKERRDTILGMMNDQGYISAKEAVTAQGRTLGLHVKKQSETPWFDSYIDLVIKEAEDKYSISGEQLLQGGYTIKVPLDSKLQKTAYQVMKEGSYYPGTDQNAEGSAVFINNKTGGVEAAIGGRDYTSKGYNRVTAVRQPGSTFKPLAVYGPAMQEKKFKPYSLLKDELQSYGDYTPKNYDSRYEGEVTMSDAITYSKNAPAVWTLNEIGVETGKSYLKANGIDIPDEGLALALGGLEKGVSPLQLAGAFHTFAANGTYTEPFFISSIIDEDGETIADHKEEGKRVFSKQTSWNMTRMLQQVVKKGTATSGTYHGDLAGKTGSTSYTGVSGATKDAWFAGYTPKITGAVWMGYDKTDQNHYLKAGSSYPTRLFKDILTQAGETGHVFTKPKNVKELESPIELKPVKTLTADYTFKAAGLFTIELKWDAQEDDRAVYRIYVNKDGEETLLDSVEGKGSYEIPYANLFSGASYKIVPYNTQTKREGEGTDYVQPKLFSS
binding: binds

B5: Manganese transport system ATP-binding protein MntB (protein, UniProt O34338 1-250)
chain: MFPVELDNVTVAYHKKPVLQDISLQVPEGKLIGIIGPNGAGKSTLIKTILGLVPRASGDISIYGKDYKDQRTRIGYVPQRGSVDWDFPTSPLDVVLMGRYGRIGLLKRPKKADVEMAKAALTKVGMHDYAKRQISQLSGGQQQRVFLARALCQNADIYFMDEPFAGVDAATERAIMTLLAELKEKGKTVLVVHHDLQTAEDYFDWILLLHLRKIAFGPTENVFTIENLQKTYGGRLTFLKDKVLAEGHKE
binding: binds

B7: Beta-hexosaminidase (protein, UniProt P40406 17-642)
chain: CFFGARQTEASASKRAIDANQIVNRMSLDEKLGQMLMPDFRNWQKEGESSPQALTKMNDEVASLVKKYQFGGIILFAENVKTTKQTVQLTDDYQKASPKIPLMLSIDQEGGIVTRLGEGTNFPGNMALGAARSRINAYQTGSIIGKELSALGINTDFSPVVDINNNPDNPVIGVRSFSSNRELTSRLGLYTMKGLQRQDIASALKHFPGHGDTDVDSHYGLPLVSHGQERLREVELYPFQKAIDAGADMVMTAHVQFPAFDDTTYKSKLDGSDILVPATLSKKVMTGLLRQEMGFNGVIVTDALNMKAIADHFGQEEAVVMAVKAGVDIALMPASVTSLKEEQKFARVIQALKEAVKNGDIPEQQINNSVERIISLKIKRGMYPARNSDSTKEKIAKAKKIVGSKQHLKAEKKLAEKAVTVLKNEQHTLPFKPKKGSRILIVAPYEEQTASIEQTIHDLIKRKKIKPVSLSKMNFASQVFKTEHEKQVKEADYIITGSYVVKNDPVVNDGVIDDTISDSSKWATVFPRAVMKAALQHNKPFVLMSLRNPYDAANFEEAKALIAVYGFKGYANGRYLQPNIPAGVMAIFGQAKPKGTLPVDIPSVTKPGNTLYPLGYGLNIKTGRPL
binding: binds

B8: 3-oxoacyl-[acyl-carrier-protein] reductase FabG (protein, UniProt P51831 1-246)
chain: MLNDKTAIVTGASRGIGRSIALDLAKSGANVVVNYSGNEAKANEVVDEIKSMGRKAIAVKADVSNPEDVQNMIKETLSVFSTIDILVNNAGITRDNLIMRMKEDEWDDVININLKGVFNCTKAVTRQMMKQRSGRIINVSSIVGVSGNPGQANYVAAKAGVIGLTKSSAKELASRNITVNAIAPGFISTDMTDKLAKDVQDEMLKQIPLARFGEPSDVSSVVTFLASEGARYMTGQTLHIDGGMVM
binding: binds

B10: Probable peptidoglycan glycosyltransferase FtsW (protein, UniProt O07639 1-403)
chain: MLKKMLKSYDYSLIFAIVLLCGFGLVMVYSSSMITAVSRYGVSSNFFFMRQLFALIAGGALFILMALFPYKALAHQKFQKGILLVSVLALISLFVFGHVAGNAQSWFKIGGMSIQPGEFVKLVVILYLAAVYAKKQSYIDHLLTGVAPPVVMTLIICGLIAMQPDFGTAMIIGLIATCMILCSGFSGKTLVRLVILGGIVFILVSPIIYLNQDKILTEGRLARFESLEDPFKYANSSGLQVINSYYAISSGGIFGLGLGESIQKYGYLPESHTDFIMAVIAEELGIFGVLFVIFLLGFVVIKGFYIARKCEDPFGSLLAIGISSMIAIQSFINLGGVSGLIPITGVTLPFISYGGSSLVLLLGSMGILANISMFVKYSENKKKKEPLAPKGMKKKQLKKTVYL
binding: binds

Other lines, results leading:

binding: binds
B2: 2-hydroxy-3-keto-5-methylthiopentenyl-1-phosphate phosphatase (protein, UniProt O31667 1-235)
chain: MTTRKPFIICDFDGTITMNDNIINIMKTFAPPEWMALKDGVLSKTLSIKEGVGRMFGLLPSSLKEEITSFVLEDAKIREGFREFVAFINEHEIPFYVISGGMDFFVYPLLEGIVEKDRIYCNHASFDNDYIHIDWPHSCKGTCSNQCGCCKPSVIHELSEPNQYIIMIGDSVTDVEAAKLSDLCFARDYLLNECREQNLNHLPYQDFYEIRKEIENVKEVQEWLQNKNAGESSLK

binding: binds
B3: Uroporphyrinogen-III synthase (protein, UniProt P21248 1-262)
chain: MENDFPLKGKTVLVTRNKAQAASFQQKVEALGGKAVLTSLITFRRALPNDVAEQVREDLAAPGWLVFTSVNGADFFFSYLKENQLILPAHKKIAAVGEKTARRLKMHNVSVDVMPQEYIAEQLADALKQHAEPGETITVMKGNLSRDVIKQELVPLGFEVKEWVLYETIPDEEGIEALKDAAGQYSFDYVTFTSSSTVHTFMHVLGEELKKWKANGTACISIGPLTNDALLTYGITSHTPDTFTIDGMLELMCSMSREEERI

binding: binds
B4: Acyl-CoA dehydrogenase (protein, UniProt P45867 1-379)
chain: MNFSLSEEHEMIRKLVRDFAKHEVAPTAAERDEQERFDRELFREMANLGLTGIPWPEDYGGIGSDYLAYVIAVEELSKVCASTGVTLSAHISLCSWPLFAFGTEEQKTEYLTQLALGEKIGAFALTEAGSGSDAGSMKTTAERIGDDYVLNGSKVFITNGGVADIYIVFAVTDPEKKKKGVTAFIVEKDFEGFFTGKKEKKLGIRSSPTTEIMFEDCVVPASKRLGEEGEGFKIAMKTLDGGRNGIAAQAVGIAQGALDAALQYAKERKQFGKSIAEQQGIAFKLADMATMIEASRLLTYQAAWLESSGLPYGKASAMSKLMAGDTAMKVTTEAVQIFGGYGYTKDYPVERYMRDAKITQIYEGTQEIQRLVISRMLAD

binding: binds
B6: Probable glycine dehydrogenase (decarboxylating) subunit 1 (protein, UniProt P54376 1-448)
chain: MKHRYLPATEKDKQEMLATIGVSSIDDLFADIPENVKYKKEHQIKKAKSETELTRELTKLASKNRDTVQYASFLGAGVYDHYQPVIVDHVISRSEFYTAYTPYQPEISQGELQAIFEFQTMICELTGMDIANSSMYDGGTALAEAAMLASGHTKKKKIVVSKTVHPESREVLKTYAKGQYIDVVEVPAADGVTDLDALRQTVCENTAAVIVQYPNFFGRIEPLKDIEPIAHQGKSMFIVSANPLALGLLTPPGKFQSDIVVGDAQPFGIPSAYGGPHCGFFAVTKKLMRKVPGRLVGQTEDENGKRGFVLTLQAREQHIRRDKATSNICSNQALNALAASVAMTALGKNGVKDIARQNLLKANYAKQEAKKAGLTVMFDGPMFNEFVIKLDEPVRAVNKRLLAKGMIGGYDLGLTYPELDCHMLIAVTELRTKEEIDALIQELGDRHE

binding: binds
B9: Dihydrolipoyl dehydrogenase (protein, UniProt O34324 1-458)
chain: MTLAIIGGGPAGYAAAVSAAQQGRNVLLIDKGKLGGTCLNEGCIPTKSLLESANVLDKIKHADSFGIELPAGAISVDWSKMQSRKQQVVSQLVQGVQYLMKKNQIQVVKGTASFLSERKLLIEGENGKEIREADQVLIASGSEPIELPFAPFDGEWILDSKDALSLSEIPSSLVIVGGGVIGCEYAGLFARLGSQVTIIETADRLIPAEDEDIARLFQEKLEEDGVEVHTSSRLGRVDQTAKTAIWKSGQREFKTKADYVLVAIGRKPRLDGLQLEQAGVDFSPKGIPVNGHMQTNVPHIYACGDAIGGIQLAHAAFHEGIIAASHASGRDVKINEKHVPRCIYTSPEIACIGMTERQARSIYGDVKIGEFSFSANGKALIKQQAEGKVKIMAEPEFGEIVGVSMIGPDVTELIGQAAAIMNGEMTADMAEHFIAAHPTLSETLHEALLSTIGLAVHA
